From patent publication US11553713B2, “Polyalcohol, carbohydrate, nucleobase and nucleotide compositions and uses thereof” (Chunbo Zhang, priority 2015, dated 2023)
“And” between values parts separate entries of the source, which are not always exact repeats. Identical values can stand only once. At least one read-out could not be matched to a standard name with certainty.

Tested on: female mosquitoes
Assay: Efficacy by ingestion: feeder test in 6-liter cage, death rate of female mosquitoes
Assay type: in vivo
Conditions: 0.1% rFOH in CPDA, 0% sugar; 24 hrs; 24 hrs fasting; sugar feeder provided for free choice
From the text: Female mosquitoes were used in the experiment because only female mosquitoes bite humans and animals and transmit infectious diseases.
(2R)-3-fluoropropane-1,2-diol (rFOH) was used as the active agent at various concentrations. A sugar feeder containing 10% sucrose, which is a regular mosquito feeder in a laboratory setting, was used as a regular food source in free choice studies. A free choice study allows the pests to select which feeder to feed on when given two or more choices.
In a two-choice test, a 6-liter cage was supplied with two feeders, one contained 5% rFOH and 10% sucrose in CPDA and the other one contained 10% sucrose without any rFOH or CPDA. 100 female mosquitoes were placed in the cage having the two feeders such that the mosquitoes chose freely which feeder to feed on. After 24 hours of feeding in the cage, over 80% of mosquitoes were dead. […] When the concentration of rFOH was reduced to 1% or 0.15%, its effectiveness remained the same. Over 80% of mosquitoes were dead due to 24 hours of feeding with rFOH.
Subsequent to 24 hours of feeding, rFOH feeder was removed from the cage and a regular sugar feeder (10% sucrose) was provided. In the next day, 5-20% of residual death was observed, indicating a delayed death after rFOH ingestion.
In a further study, mosquitoes were fasted for 24 hours before feeding to ensure that all mosquitoes have the capacity for food intake. […]

## OC[C@@H](O)CF [rFOH, (2R)-3-fluoropropane-1,2-diol]
  Death Rate: 10-25% and 13-17%
